The target of data set [1] is CR8 bHLH domain (BHLHE40/DEC1) (human) (UniProt O14503). Description: competition with a labelled probe. The conditions noted are these: unlabeled competitor against labeled Class B probe; purified recombinant protein; label: 32P 5' end.
The target is the same in data set [2]. Description: EMSA. The following applies: same buffer; purified recombinant protein; label: 32P 5' end. For orientation: In EMSA bound probe runs differently from free probe, usually more slowly.

Chains of the proteins cited; added tags and fusions are not shown. A line that says so, or that is headed by a name, gives the form on record, which may keep a tag or linker.
UniProt O14503, other isoform, or with tags, fused parts or gaps: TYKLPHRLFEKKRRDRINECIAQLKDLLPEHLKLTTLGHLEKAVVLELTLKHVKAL

The comparison behind a weaker result is the experiment's own reference, which may not be listed here.

Consider “GATCGGCAGCCGGCACGCGACAGGGCC / GATCGGCCCTGTCGCGTGCCGGCTGCC [Class C probe (AS-C T5 promoter)]”, for which, in data set [1], the binding result is given as “binds more weakly”.

Regarding “GATCACGCCACGAGCCACAAGGATTG / GATCCAATCCTTGTGGCTCGTGGCGT [N-box probe (E(spl) m8 promoter)]”, in data set [2], the binding result is “binds more weakly”.

The values above are taken from patent US5871960, “Nucleic acids encoding CR5 polypeptide, vector and transformed cell thereof, and expression thereof” (Trustees of Dartmouth College).
